{"source": "PubChem BioAssay AID2685", "about": "(National Center for Advancing Translational Sciences (NCATS), 2010)", "note": "The campaign covered roughly 320,000 compounds. About 2,100 (0.66%) were called active. The inconclusive results got no clear call from the source; some entries with a clear call stand among them for comparison. Calls follow the shape of the dose curve; as a rule, active = well fitted inhibition curve with a large enough effect in the signal ratio, with a control signal flat (not every such curve was filed as active); inconclusive = small, poorly fitted or top-dose-only effect, or effect the other way, or a change in a side signal; inactive = flat fitted curve, though single readings scatter; the % refers to the signal ratio. Where the call is inconclusive, the potency comes from a doubtful curve fit. % is scaled to controls: 0 for no effect and ±100 for the full control effect; potency is read from the fitted curve at half-maximal effect.", "data": [{"test": "qHTS Assay for Lipid Storage Modulators in Drosophila S3 Cells", "settings": "BODIPY lipid droplet fluorescence, 18-24 h, cells fed with added oleic acid; lipid storage change, negative = inhibition: at 46.1 µM (top of the series) unless noted", "how_it_was_run": "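Drosophila S3 cells loaded with oleic acid (400 uM, as added) and compounds at several concentrations; lipid droplets imaged by 488-nm laser-scanning cytometry, 500–530 nm intensity and object ratio to cell channel. Percent activity normalized to 20 uM Triacsin C.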", "values": [{"smiles": "COc1ccc(CC(=O)Nc2ccccc2C(=O)N2CCOCC2)cc1OC", "lipid storage change, negative = inhibition": "inconclusive: -9.08%"}, {"smiles": "Cc1ccc(NC(=O)c2cccc(S(C)(=O)=O)c2)cc1", "Potency": "inconclusive: 8.2 µM [activator, partial curve]"}, {"smiles": "CCOC(=O)c1cnc(-n2nc(C)cc2C)nc1NNc1cc(C)nc(-c2ccccc2)n1", "lipid storage change, negative = inhibition": "inconclusive: -73%"}, {"smiles": "Cc1cc(Br)ccc1NC(=O)CNC(=O)CN(C)Cc1nc2ccccc2c(=O)[nH]1", "lipid storage change, negative = inhibition": "inconclusive: -34.3%"}, {"smiles": "CCOC(=O)c1oc2ccccc2c1NC(=O)CCl", "lipid storage change, negative = inhibition": "inconclusive: -1.27%"}, {"smiles": "O=C(Nc1ccc2c(c1)OCO2)Nc1ccccc1F", "Potency": "inconclusive: 29.1 µM [rising, partial curve, poor fit]"}, {"smiles": "COc1ccc(C(c2c(C)n(C)n(-c3ccccc3)c2=O)c2c(C)n(C)n(-c3ccccc3)c2=O)c(OC)c1OC", "Potency": "inconclusive: 6.51 µM [activator, single point]"}, {"smiles": "COc1ccc(OC)c(NC(=O)c2cc3ccccc3cc2OC)c1", "Potency": "inconclusive: 20.6 µM [falling, single point]"}, {"smiles": "CCOc1ccc(NC(=O)CN(C)C(=O)c2cn(-c3ccc(F)cc3)nc2-c2cccc(OC)c2)cc1OCC", "lipid storage change, negative = inhibition": "inconclusive: 19.9%"}, {"smiles": "Cc1ccc(-n2ccnc(SCC(=O)NCCc3ccccc3)c2=O)cc1F", "lipid storage change, negative = inhibition": "inconclusive"}, {"smiles": "COc1ccc(CCNC(=S)Nc2cc(C)ccc2C)cc1", "Potency": "inconclusive: 0.058 µM [rising, full curve, poor fit]"}, {"smiles": "CC(=O)c1ccn(S(=O)(=O)c2ccccc2)c1", "lipid storage change, negative = inhibition": "inconclusive: 20.2%"}, {"smiles": "COc1ccc(OC)c(CNc2ncc(-c3ccc(F)cc3)n2C)c1", "Potency": "active: 32.6 µM"}, {"smiles": "COc1ccc(-n2nc(C(=O)NCc3ccco3)c3ccccc3c2=O)cc1", "Potency": "inconclusive: 1.84 µM [rising, partial curve, poor fit]"}, {"smiles": "O=C(NCc1ccc(Cl)cc1)c1noc2c1CCCC2", "lipid storage change, negative = inhibition": "inconclusive: -2.36%"}, {"smiles": "CC(=O)c1ccc(Sc2ccccn2)c([N+](=O)[O-])c1", "lipid storage change, negative = inhibition": "inconclusive: 20%"}, {"smiles": "c1ccc2c(c1)c1ccccc1n1c(-c3ccc4c(c3)OCO4)nnc21", "lipid storage change, negative = inhibition": "inconclusive: -6.3%"}, {"smiles": "O=S(=O)(NCCCN1CCOCC1)c1ccc2c(c1)OCCO2", "lipid storage change, negative = inhibition": "inconclusive: -10.1%"}, {"smiles": "CCCCC/C=C/C1=CC(=O)C[C@H](c2ccc(OC)cc2)C1", "Potency": "inconclusive: 0.0058 µM [activator, full curve, poor fit]"}, {"smiles": "CC(=O)OC1CCC2(C)C(=CCC3C2CCC2(C)C3CC3OC4(CCC(C)CN4)C(C)C32)C1", "note": "(stereo not given)", "lipid storage change, negative = inhibition": "inconclusive: 6.83%"}, {"smiles": "O=C(CSc1nc2ccc(NC(=O)CSc3nnnn3-c3ccccc3)cc2s1)Nc1ccccc1", "Potency": "inconclusive: 2.31 µM [falling, partial curve]"}, {"smiles": "Cc1ccc(-c2nnn(Cc3nc4ccccc4s3)n2)cc1", "lipid storage change, negative = inhibition": "inconclusive: 53.1%"}, {"smiles": "O=S(=O)(c1ccc(Br)s1)N1CCN(CCc2ccccc2)CC1", "lipid storage change, negative = inhibition": "inconclusive: -14.9%"}, {"smiles": "CCC(OC(=O)CNS(=O)(=O)c1ccccc1)C(=O)c1ccccc1", "note": "(stereo not given)", "Potency": "inconclusive: 6.51 µM [activator, single point]"}, {"smiles": "Cc1onc(-c2ccccc2Cl)c1C(=O)NCCCN1CCOCC1", "lipid storage change, negative = inhibition": "inconclusive: 19.7%"}, {"smiles": "O=C(Nc1ccccc1Cl)NC1(C(=O)NCc2cccnc2)CCCCC1", "Potency": "inconclusive: 6.51 µM [activator, single point]"}, {"smiles": "CC(=O)N/N=C(\\C)c1cccc(C(F)(F)F)c1", "Potency": "inconclusive: 3.26 µM [falling, partial curve]"}, {"smiles": "O=C(CSc1ccccn1)Nc1ccc2c(c1)oc1ccccc12", "lipid storage change, negative = inhibition": "inconclusive: 24.9%"}, {"smiles": "Cc1cc(C)c2nc(Nc3nc(-c4ccccc4)cc(=O)[nH]3)nc(C)c2c1", "Potency": "inconclusive: 20.6 µM [falling, partial curve, poor fit]"}, {"smiles": "O=C(CCCn1c(=O)c2cccn2c2cccnc21)NCc1cccc(Br)c1", "lipid storage change, negative = inhibition": "inconclusive: -85.9%"}, {"smiles": "Cc1ccc(S(=O)(=O)N2CCN(CN3C(=O)CC4(CCCC4)C3=O)CC2)cc1", "Potency": "inconclusive: 0.231 µM [activator, full curve, poor fit]"}, {"smiles": "CCOC(=O)c1ccc(N2CCCCC2)c(NS(=O)(=O)c2ccc(C)cc2)c1", "lipid storage change, negative = inhibition": "inconclusive: 5.33%"}, {"smiles": "NC(=S)NNc1ccc(Cl)c(Cl)c1", "lipid storage change, negative = inhibition": "inconclusive: -8.53%"}, {"smiles": "Cc1ccc(S(=O)(=O)N2CCN(C3CC4CCC3C4)CC2)cc1", "note": "(stereo not given)", "lipid storage change, negative = inhibition": "inconclusive: 242%"}, {"smiles": "Cc1ccc(C(=O)N/C(=C\\c2cccs2)C(=O)NCc2cccnc2)cc1", "lipid storage change, negative = inhibition": "inactive"}, {"smiles": "COc1cc(C(C)=O)ccc1OC(C)C(=O)Nc1ccc(S(=O)(=O)N2CCCC2)cc1", "note": "(stereo not given)", "Potency": "inconclusive: 0.0046 µM [activator, full curve, poor fit]"}, {"smiles": "CCn1c(C(=O)N2CCCC(C(=O)NCCc3ccc(C)cc3)C2)cc2sccc21", "note": "(stereo not given)", "lipid storage change, negative = inhibition": "inconclusive: 10.5%"}, {"smiles": "Cc1ccc(CN2CCN(/N=C/c3ccc(O)c(O)c3)CC2)cc1", "Potency": "inconclusive: 20.6 µM [activator, partial curve]"}, {"smiles": "CCCCN(CC)C(=O)CSc1nc2ccccc2c(=O)n1CC1COc2ccccc2O1", "note": "(stereo not given)", "lipid storage change, negative = inhibition": "inconclusive: 20%"}, {"smiles": "Cc1ccc(NC(=O)Nc2ccccc2C(N)=O)cc1", "lipid storage change, negative = inhibition": "inconclusive: 0.966%"}, {"smiles": "CCCn1c(=O)c2ccccc2n2c(SCCOc3ccc(Cl)cc3)nnc12", "lipid storage change, negative = inhibition": "inconclusive: 10.9%"}, {"smiles": "O=C(Nc1c(-c2ccc(F)cc2)nc2ccccn12)c1ccc(F)cc1", "lipid storage change, negative = inhibition": "inconclusive: 14.4%"}, {"smiles": "O=C(O)C1CCN(S(=O)(=O)Cc2ccccc2)CC1", "lipid storage change, negative = inhibition": "inconclusive: 195%"}, {"smiles": "COC(=O)CCCCCCCCC(O)CN(C)C", "note": "(stereo not given)", "lipid storage change, negative = inhibition": "inconclusive: 35.5%"}, {"smiles": "CCOc1ccc(N(CC)S(=O)(=O)c2c(C)[nH]c(=O)[nH]c2=O)cc1", "lipid storage change, negative = inhibition": "inconclusive: 63.9%"}, {"smiles": "CCN1CCN(S(=O)(=O)c2ccc(Cl)c(C(=O)N(C)Cc3cccs3)c2)CC1", "lipid storage change, negative = inhibition": "inconclusive: 7.48%"}, {"smiles": "Cc1cc(NC(=O)c2cc(-c3ccccc3C)nc3ccccc23)no1", "Potency": "inconclusive: 16.4 µM [activator, single point]"}, {"smiles": "Cn1c(COc2ccccc2)nnc1SCC(=O)Nc1ccc(N2CCOCC2)cc1", "Potency": "inconclusive: 5.17 µM [activator, single point]"}, {"smiles": "COc1cc(-c2nc3cnccn3c2Nc2ccc3c(c2)OCCO3)ccc1O", "lipid storage change, negative = inhibition": "inconclusive: -35%"}, {"smiles": "COc1ccccc1C(CNC(=O)c1cccc(S(=O)(=O)Nc2ccc(F)cc2)c1)N(C)C", "note": "(stereo not given)", "lipid storage change, negative = inhibition": "inconclusive: -5.98%"}, {"smiles": "O=C(N/C(=C/c1ccco1)C(=O)N1CCOCC1)c1ccc([N+](=O)[O-])cc1", "lipid storage change, negative = inhibition": "inconclusive: -18.1%"}, {"smiles": "O=C(CCNS(=O)(=O)c1ccc(Br)cc1)NCC1CCCO1", "note": "(stereo not given)", "Potency": "inconclusive: 16.4 µM [falling, single point]"}, {"smiles": "Cc1ccc2cccc(OCC(=O)N(C)CC(=O)Nc3ccc(F)cc3)c2n1", "Potency": "inconclusive: 29.1 µM [falling, single point]"}, {"smiles": "Cn1c(SCC(=O)Nc2ccccc2[N+](=O)[O-])nnc1C(F)(F)F", "lipid storage change, negative = inhibition": "inconclusive: 7.13%"}, {"smiles": "CCn1c(NC(=O)c2ccc(F)cc2)c2ccccc2nc1=O", "lipid storage change, negative = inhibition": "inconclusive: 26.1%"}, {"smiles": "O=C(CNC(=O)c1ccc(Cl)cc1Cl)OCn1nnc2ccccc2c1=O", "lipid storage change, negative = inhibition": "inconclusive"}, {"smiles": "O=C(COc1ccc(Br)cc1CO)Nc1ccc(S(=O)(=O)N2CCCC2)cc1", "lipid storage change, negative = inhibition": "inconclusive"}, {"smiles": "CCCCNC(=O)CCn1c(=O)c2ccccc2n(Cc2ccccc2C)c1=O", "lipid storage change, negative = inhibition": "inconclusive: -27.8%"}, {"smiles": "CC(C)N1CCC(N2CCN(Cc3cc(F)ccc3-n3cccn3)CC2CCO)CC1", "note": "(stereo not given)", "lipid storage change, negative = inhibition": "inconclusive: -8.47%"}, {"smiles": "CCN1CCN(c2ccc(S(=O)(=O)N3CCOCC3)cc2NC(=O)c2ccc(Cl)cc2Cl)CC1", "Potency": "inconclusive: 29.1 µM [falling, single point]"}, {"smiles": "Cc1ccc(S(=O)(=O)N2CCN(S(=O)(=O)N3CCC(C)CC3)CC2)cc1C", "lipid storage change, negative = inhibition": "inconclusive: 16.2%"}, {"smiles": "COc1ccc(N=Nc2cnc(C)nc2-c2ccccc2)cc1", "Potency": "inconclusive: 29.1 µM [falling, single point]"}, {"smiles": "CCCCOc1ccccc1N", "lipid storage change, negative = inhibition": "inconclusive: 41.6%"}, {"smiles": "Cc1ccc(C(=O)NCCCNC(=O)c2ccccc2C)cn1", "Potency": "inconclusive: 6.51 µM [falling, single point]"}, {"smiles": "NC(=O)c1ccsc1NC(=O)COC(=O)c1ccc(Cl)cc1", "lipid storage change, negative = inhibition": "inconclusive: -19.9%"}, {"smiles": "O=C(CCCN=C1NS(=O)(=O)c2ccccc21)OCc1cc([N+](=O)[O-])cc2c1OCOC2", "lipid storage change, negative = inhibition": "inconclusive: -17.8%"}, {"smiles": "CC(C)N(Cc1ccccc1)C(=O)COC(=O)C1CCN(c2ccc(C(F)(F)F)cn2)CC1", "Potency": "inconclusive: 0.103 µM [falling, full curve, poor fit]"}, {"smiles": "CCOc1cc(C(=O)Nc2ccc(C(=O)NCCN(CC)CC)cc2)ccc1OCC(=O)N1CCOCC1", "lipid storage change, negative = inhibition": "inconclusive"}, {"smiles": "O=C(Cn1cnc2c(NC(=O)OCc3ccccc3)ncnc21)NCCN1CCOCC1", "lipid storage change, negative = inhibition": "inconclusive: 9.46%"}, {"smiles": "Cc1cc(Nc2ccc(N(C)C)cc2)n2ncnc2n1", "Potency": "inconclusive: 20.6 µM [activator, partial curve]"}, {"smiles": "CCCCn1c(N)c(N(CC)C(=O)c2ccc(C)cc2)c(=O)[nH]c1=O", "lipid storage change, negative = inhibition": "inconclusive: 9.86%"}, {"smiles": "CC(C)CC(=O)Nc1sc2c(c1C#N)CC(C)(C)NC2(C)C", "lipid storage change, negative = inhibition": "inconclusive: -54.8%"}, {"smiles": "CC(=O)c1cccc(OCC(O)CN2CCN(C(=O)c3ccco3)CC2)c1", "note": "(stereo not given)", "Potency": "inconclusive: 6.51 µM [falling, single point]"}, {"smiles": "CN(C)c1ccc(CNc2nc(-c3ccccc3)nn2S(C)(=O)=O)cc1", "lipid storage change, negative = inhibition": "inconclusive: -35.7% [at 0.369 µM]"}, {"smiles": "CC(=O)c1ccc(S(=O)(=O)NCCC(=O)OCC(=O)N(Cc2ccccc2)C(C)(C)C)cc1", "Potency": "inconclusive: 29.1 µM [activator, partial curve, poor fit]"}]}]}
